Data as given in the supplement of paper PMC6078165.

Tested on: BT20
Assay: relative JC-1 red fluorescence (viability) vs pre-drug, coculture with fibroblast (fraction); higher = more viable cancer cells
Protocol: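 JC-1 labelled TNBC cells cocultured 1:1 (1,500 cells each) with CellTrace Violet stained primary or stromal fibroblasts in 384-well plates in FluoroBrite medium, treated with one of 42 anticancer drugs at 0.1, 1, 10 or 100 uM. JC-1 red fluorescence (mitochondrial integrity in cancer cells only) was read by plate reader every 8 h for 72 h. Values are normalised to each well's pre-drug value. The stock of one drug was tenfold lower, so its dose labels may be too high.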

Nc1ncn([C@@H]2O[C@H](CO)[C@@H](O)[C@H]2O)c(=O)n1 [Azacitidine]
relative JC-1 red fluorescence
Settings | 8 h | 16 h | 24 h | 32 h | 40 h | 48 h | 56 h | 64 h | 72 h
0.1 µM, coculture fibroblast: C12385 | 0.8879 | 0.839 | 0.81 | 0.748 | 0.684 | 0.666 | 0.646 | 0.641 | 0.632
0.1 µM, coculture fibroblast: H6013 | 0.895 | 0.812 | 0.853 | 0.8768 | 0.856 | 0.8 | 0.841 | 0.911 | 0.929
0.1 µM, coculture fibroblast: H6019 | 0.887 | 0.844 | 0.869 | 0.823 | 0.78 | 0.764 | 0.73 | 0.703 | 0.679
0.1 µM, coculture fibroblast: H6076 | 0.943 | 0.9434 | 0.886 | 0.858 | 0.843 | 0.839 | 0.844 | 0.841 | 0.8401
0.1 µM, coculture fibroblast: H6231 | 0.964 | 0.878 | 0.815 | 0.762 | 0.752 | 0.719 | 0.699 | 0.703 | 0.698
0.1 µM, coculture fibroblast: HADF | 0.978 | 0.823 | 0.923 | 0.825 | 0.888 | 0.879 | 0.808 | 0.82 | 0.805
0.1 µM, coculture fibroblast: HCFa | 0.9191 | 0.885 | 0.863 | 0.806 | 0.772 | 0.749 | 0.731 | 0.716 | 0.682
0.1 µM, coculture fibroblast: HCPF | 0.845 | 0.91761 | 0.842 | 0.8 | 0.776 | 0.746 | 0.72 | 0.735 | 0.711
0.1 µM, coculture fibroblast: HHSteC | 0.9413 | 0.912 | 0.906 | 0.835 | 0.797 | 0.77 | 0.756 | 0.737 | 0.715
0.1 µM, coculture fibroblast: HMF | 0.962 | 0.916 | 0.838 | 0.803 | 0.776 | 0.741 | 0.719 | 0.709 | 0.705
0.1 µM, coculture fibroblast: HPFa | 0.912 | 0.896 | 0.919 | 0.857 | 0.85 | 0.824 | 0.813 | 0.807 | 0.763
0.1 µM, coculture fibroblast: HUF | 0.899 | 0.822 | 0.789 | 0.697 | 0.643 | 0.609 | 0.588 | 0.58 | 0.569
0.1 µM, coculture fibroblast: Hs5 | 0.762 | 0.952 | 0.912 | 0.883 | 0.8576 | 0.8338 | 0.81674 | 0.792 | 0.779
0.1 µM, coculture fibroblast: Hs27A | 0.932 | 0.93 | 0.858 | 0.842 | 0.943 | 0.946 | 0.9712 | 0.983 | 0.952
0.1 µM, coculture fibroblast: Hs343T | 0.903 | 0.906 | 0.82 | 0.754 | 0.697 | 0.66 | 0.6035 | 0.584 | 0.554
0.1 µM, coculture fibroblast: WS1 | 0.8446 | 0.796 | 0.771 | 0.707 | 0.6496 | 0.6261 | 0.6 | 0.584 | 0.572
1 µM, coculture fibroblast: C12385 | 0.8867 | 0.835 | 0.856 | 0.811 | 0.775 | 0.766 | 0.762 | 0.773 | 0.768
1 µM, coculture fibroblast: H6013 | 0.908 | 0.835 | 0.823 | 0.769 | 0.719 | 0.695 | 0.685 | 0.664 | 0.653
1 µM, coculture fibroblast: H6019 | 0.823 | 0.8002 | 0.7829 | 0.728 | 0.68 | 0.657 | 0.629 | 0.605 | 0.586
1 µM, coculture fibroblast: H6076 | 0.966 | 0.903 | 0.837 | 0.81281 | 0.785 | 0.781 | 0.773 | 0.772 | 0.765
1 µM, coculture fibroblast: H6231 | 0.814 | 0.923 | 0.80014 | 0.73945 | 0.68 | 0.624 | 0.583 | 0.55369 | 0.5349
1 µM, coculture fibroblast: HADF | 0.751 | 0.93 | 0.84 | 0.8 | 0.767 | 0.718 | 0.691 | 0.664 | 0.631
1 µM, coculture fibroblast: HCFa | 0.901 | 0.8354 | 0.796 | 0.739 | 0.681 | 0.636 | 0.595 | 0.564 | 0.519
1 µM, coculture fibroblast: HCPF | 0.94 | 0.867 | 0.839 | 0.807 | 0.774 | 0.748 | 0.716 | 0.713 | 0.685
1 µM, coculture fibroblast: HHSteC | 0.909 | 0.839 | 0.8078 | 0.731 | 0.685 | 0.64574 | 0.61608 | 0.591 | 0.563
1 µM, coculture fibroblast: HMF | 0.927 | 0.844 | 0.773 | 0.7164 | 0.68 | 0.642 | 0.612 | 0.591 | 0.575
1 µM, coculture fibroblast: HPFa | 0.986 | 0.928 | 0.974 | 0.937 | 0.962 | 0.922 | 0.915 | 0.892 | 0.843
1 µM, coculture fibroblast: HUF | 0.897 | 0.814 | 0.771 | 0.675 | 0.623 | 0.575 | 0.548 | 0.53 | 0.512
1 µM, coculture fibroblast: Hs5 | 0.92 | 0.856 | 0.824 | 0.795 | 0.793 | 0.767 | 0.764 | 0.748 | 0.729
1 µM, coculture fibroblast: Hs27A | 0.8644 | 0.7613 | 0.9106 | 0.943 | 0.923 | 0.904 | 0.898 | 0.877 | 0.834
1 µM, coculture fibroblast: Hs343T | 0.9962 | 0.868 | 0.797 | 0.742 | 0.691 | 0.646 | 0.605 | 0.59 | 0.555
1 µM, coculture fibroblast: WS1 | 0.869 | 0.802 | 0.804 | 0.749 | 0.706 | 0.688 | 0.668 | 0.65 | 0.648

The reference is the same well before dosing, and untreated signal decays as well.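 Fibroblast labels denote human fibroblasts, mainly primary ones from uterus (C12385, HUF), lung (H6013), bone (Hs27A), adrenal (HADF) and skin (WS1), plus mammary HMF and breast cancer-associated Hs343T. Cancer cells are basal-like or mesenchymal-like triple-negative breast cancer lines. A hit is a response shift exceeding 3x replicate standard deviation. The tissue of the other fibroblasts is not given here.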
